The list shows a part of the results. Many values rest on one well or one pass, so single values are uncertain.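 The apoptosis fraction was the count of cleaved-PARP antibody-stained nuclei relative to all DNA-stained nuclei, imaged in 1,536-well plates. Screening doses were set so most cells survived, and baseline and induced cleaved-PARP levels vary greatly across cell lines.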
Each molecule was assayed on MZ2-MEL (assay: cleaved PARP positive nuclei fraction relative to DMSO control; melanoma cells; higher = more apoptosis). Conditions: library dose: low library concentration; 72 h.
For `CCc1ccc(CCOc2ccc(CC3SC(=O)NC3=O)cc2)nc1` (stereo unspecified) [pioglitazone] + CCCCCCCCCCCC1=C(O)C(=O)C=C(O)C1=O [Embelin] (first compound 2 µM, partner dose 1.2 µM), the “cleaved PARP positive nuclei fraction” value was 96.7%. With `CN(C)S(=O)(=O)c1ccc2c(c1)/C(=C/c1cc3c([nH]1)CCCC3)C(=O)N2` + c1cc(-c2cnn3cc(-c4ccc(OCCN5CCCCC5)cc4)cnc23)ccn1 [Dorsomorphin] (first compound 0.4 µM, partner dose 0.4 µM) the “cleaved PARP positive nuclei fraction” value was 114%. With `O=C(Nc1ccccc1)c1cc([N+](=O)[O-])ccc1Cl` + O=c1cc(-c2cccc3c2Sc2ccccc2S3)oc(N2CCOCC2)c1 [KU55933] (first compound 2 µM, partner dose 1 µM) the “cleaved PARP positive nuclei fraction” value was 119%. In the case of `COc1cc2ncnc(Nc3ccc(Oc4ccccc4)cc3)c2cc1OC` + O=C(O)C(=O)Nc1sc2c(c1C(=O)O)CCNC2 [TCS401] (first compound 2 µM, partner dose 1.66667 µM), the “cleaved PARP positive nuclei fraction” value is reported as 110%. In the case of `COc1ccc(-c2ccc3c(N4CCOCC4)nc(N4C[C@@H](C)O[C@@H](C)C4)nc3n2)cc1CO` + Oc1nc(-c2ccc(C(F)(F)F)cc2)nc2c1CSCC2 [XAV939] (first compound 0.02 µM, partner dose 2 µM), the “cleaved PARP positive nuclei fraction” value is reported as 31.4%. `CN(NC(=O)CC(=O)NN(C)C(=S)c1ccccc1)C(=S)c1ccccc1` + CCc1ccc(CCOc2ccc(CC3SC(=O)NC3=O)cc2)nc1 [pioglitazone] (first compound 0.006 µM, partner dose 2 µM) was tested, and the “cleaved PARP positive nuclei fraction” value was 112%.
